Test results from the supplement of paper PMC8728848.
This is one part of the list.

Tests used:
Assay in all cases: glycan array binding signal (z-score within array); higher = stronger binding
Conditions in all cases: glycan notation: IUPAC condensed, linker removed
Gal6S(b1-4)Glc6S = target: Gal6S(b1-4)Glc6S
In short: (§1)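 Glycan array data came from 3228 arrays in the Consortium for Functional Glycomics database, and only arrays with an available protein sequence were kept. Glycan names were put into IUPAC-condensed notation, and columns mapping to the same glycan were averaged. The binding signal is a within-array Z-score, averaged across arrays of one protein sequence run at different concentrations or buffers and across linkers. A negative Z-score can be read as non-binding.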

Gal6S(b1-4)GlcNAc = target: Gal6S(b1-4)GlcNAc
In short: as §1

Gal6S(b1-4)GlcNAc6S = target: Gal6S(b1-4)GlcNAc6S
In short: as §1

GalNAc(a1-3)Gal = target: GalNAc(a1-3)Gal
In short: as §1

GalNAc(a1-3)GalNAc = target: GalNAc(a1-3)GalNAc
In short: as §1

[1] = target: GalNAc(a1-3)GalNAc(b1-3)Gal(a1-4)Gal(b1-4)Glc
In short: as §1

[2] = target: GalNAc(a1-3)GalNAc(b1-3)Gal(a1-4)Gal(b1-4)GlcNAc
In short: as §1

GalNAc(b1-3)Gal = target: GalNAc(b1-3)Gal
In short: as §1

[3] = target: GalNAc(b1-3)Gal(a1-4)Gal(b1-4)GlcNAc
In short: as §1

[4] = target: GalNAc(b1-3)Gal(a1-4)Gal(b1-4)GlcNAc(b1-3)Gal(b1-4)Glc
In short: as §1

[5] = target: GalNAc(b1-3)Gal(a1-6)Gal(b1-4)Glc
In short: as §1

GalNAc(b1-3)GalNAc = target: GalNAc(b1-3)GalNAc
In short: as §1

GalNAc(b1-3)GlcNAc = target: GalNAc(b1-3)GlcNAc
In short: as §1

GalNAc(b1-4)Gal(b1-4)Glc = target: GalNAc(b1-4)Gal(b1-4)Glc
In short: as §1

GalNAc(b1-4)GlcNAc = target: GalNAc(b1-4)GlcNAc
In short: as §1

[6] = target: GalNAc(b1-4)GlcNAc(b1-2)Man
In short: as §1

[7] = target: GalNAc(b1-4)GlcNAc(b1-2)Man(a1-3)[GalNAc(b1-4)GlcNAc(b1-2)Man(a1-6)]Man(b1-4)GlcNAc(b1-4)GlcNAc
In short: as §1

[8] = target: GalNAc(b1-4)GlcNAc(b1-3)GalNAc(b1-4)GlcNAc
In short: as §1

GalNAc(b1-4)GlcNAc6S = target: GalNAc(b1-4)GlcNAc6S
In short: as §1

GalNAc(b1-6)GalNAc = target: GalNAc(b1-6)GalNAc
In short: as §1

GalNAc3S(b1-4)GlcNAc = target: GalNAc3S(b1-4)GlcNAc
In short: as §1

GalNAc3S(b1-4)GlcNAc3S = target: GalNAc3S(b1-4)GlcNAc3S
In short: as §1

[9] = target: GalNAc3S(b1-4)[Fuc(a1-3)]GlcNAc
In short: as §1

GalNAc4S6S(b1-4)GlcNAc = target: GalNAc4S6S(b1-4)GlcNAc
In short: as §1

GalNAc6S(b1-4)GlcNAc = target: GalNAc6S(b1-4)GlcNAc
In short: as §1

Glc(a1-4)Glc = target: Glc(a1-4)Glc
In short: as §1

[10] = target: Glc(a1-4)Glc(a1-4)Glc(a1-4)Glc
In short: as §1

Glc(a1-6)Glc(a1-6)Glc = target: Glc(a1-6)Glc(a1-6)Glc
In short: as §1

[11] = target: Glc(a1-6)Glc(a1-6)Glc(a1-6)Glc
In short: as §1

Glc(b1-4)Glc = target: Glc(b1-4)Glc
In short: as §1

Glc(b1-6)Glc = target: Glc(b1-6)Glc
In short: as §1

GlcA(b1-3)Gal = target: GlcA(b1-3)Gal
In short: as §1

GlcA(b1-3)GlcNAc = target: GlcA(b1-3)GlcNAc
In short: as §1

GlcA(b1-6)Gal = target: GlcA(b1-6)Gal
In short: as §1

[12] = target: GlcA3S(b1-3)Gal(b1-4)GlcNAc(b1-2)Man
In short: as §1

[13] = target: GlcA3S(b1-3)Gal(b1-4)GlcNAc(b1-3)Gal(b1-4)Glc
In short: as §1

[14] = target: GlcNAc(a1-3)Gal(b1-4)GlcNAc
In short: as §1

B1: PX9916F-bfa-443-24-443 (Bacteroides fragilis) (protein)
chain: DIRPVGSVIPQTAEEYRALLARAYLNVPNDRGLACLRSDEMLVNDNEYDRNSYGDIERWNDVSPFPGTSQFTWSNFYNVLFIANQVIESQKEITEGTPEVVNQLVGEAHLLRAYLHFVLVNLHGQPYTKSGALNSKSIPLKLDTDLEKTLGRNTVEEVYTSILSDIEHARELINKEKWETVFSYRFNVLSVDALQSRVSLYMGAWPKCLESAEAVLAKKSVLVDMNETPLALPNHFESVESITALEQVMGSSVNNAVWVPATFLALYQEGDKRLAAYFAAPDENGNRKSSKGGKREFSCTFRVGELYLNAAEAAANMDKLPHARMRLLELMRKRYTPEAYDKKENAVNVMDKNALISEILNERARELAFEGHRWFDLRRTTRPRMVKVLQGKTYILEQDDPRYTIPIPRDAIAANPGLAN
glycan array binding signal (z-score) (Gal6S(b1-4)Glc6S): -0.274
glycan array binding signal (z-score) (Gal6S(b1-4)GlcNAc): -1.66
glycan array binding signal (z-score) (Gal6S(b1-4)GlcNAc6S): -0.714
glycan array binding signal (z-score) (GalNAc(a1-3)Gal): -0.667
glycan array binding signal (z-score) (GalNAc(a1-3)GalNAc): -1.08
glycan array binding signal (z-score) [1]: -0.04
glycan array binding signal (z-score) [2]: -0.829
glycan array binding signal (z-score) (GalNAc(b1-3)Gal): -0.418
glycan array binding signal (z-score) [3]: 0.737
glycan array binding signal (z-score) [4]: 0.078
glycan array binding signal (z-score) [5]: 0.075
glycan array binding signal (z-score) (GalNAc(b1-3)GalNAc): -0.249
glycan array binding signal (z-score) (GalNAc(b1-3)GlcNAc): -0.227
glycan array binding signal (z-score) (GalNAc(b1-4)Gal(b1-4)Glc): -0.197
glycan array binding signal (z-score) (GalNAc(b1-4)GlcNAc): -0.017
glycan array binding signal (z-score) [6]: -0.005
glycan array binding signal (z-score) [7]: 0.935
glycan array binding signal (z-score) [8]: 2.16
glycan array binding signal (z-score) (GalNAc(b1-4)GlcNAc6S): 0.581
glycan array binding signal (z-score) (GalNAc(b1-6)GalNAc): 0.481
glycan array binding signal (z-score) (GalNAc3S(b1-4)GlcNAc): -0.685
glycan array binding signal (z-score) (GalNAc3S(b1-4)GlcNAc3S): -1.31
glycan array binding signal (z-score) [9]: -0.5
glycan array binding signal (z-score) (GalNAc4S6S(b1-4)GlcNAc): -0.109
glycan array binding signal (z-score) (GalNAc6S(b1-4)GlcNAc): -1.03
glycan array binding signal (z-score) (Glc(a1-4)Glc): 0.362
glycan array binding signal (z-score) [10]: -0.434
glycan array binding signal (z-score) (Glc(a1-6)Glc(a1-6)Glc): -0.494
glycan array binding signal (z-score) [11]: 0.231
glycan array binding signal (z-score) (Glc(b1-4)Glc): 1.34
glycan array binding signal (z-score) (Glc(b1-6)Glc): 0.089
glycan array binding signal (z-score) (GlcA(b1-3)Gal): -0.094
glycan array binding signal (z-score) (GlcA(b1-3)GlcNAc): -0.947
glycan array binding signal (z-score) (GlcA(b1-6)Gal): 2.71
glycan array binding signal (z-score) [12]: -0.319
glycan array binding signal (z-score) [13]: 0.319
glycan array binding signal (z-score) [14]: -0.98
